From PubChem BioAssay AID2685 (National Center for Advancing Translational Sciences (NCATS), 2010) come the findings set out here.

The experiment is described as follows: qHTS Assay for Lipid Storage Modulators in Drosophila S3 Cells.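 As to cell number change: cells counted by Cell Tracker Red CMTPX staining in the red channel.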 To be noted: BODIPY lipid droplet fluorescence, 18-24 h; for cell number change: measured here: cell count max response, cells fed with added oleic acid. In short, it runs like this: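 Laser-scanning cytometry quantifies lipid droplet accumulation (500–530 nm total intensity; droplet/cell object ratio) in oleic acid-fed (400 uM added) Drosophila S3 cells treated with a concentration series. 20 uM Triacsin C defined 100% inhibition.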
Background: In qHTS, concentration-response curves come from the screen itself.

Where [1] appears, read: measured here: lipid fluorescence (Fed channel) AC50, cells fed with added oleic acid.
Setting [2] is: measured here: cell number channel AC50, cells fed with added oleic acid.

SMILES strings stand for the structures. The list shows a part of the results. Shown are side measurements of this screen, not its main read-out; they come without a call. The list favours compounds with an active or inconclusive main result. Words in brackets tell the shape of the fitted curve; partial curves, single points and poor fits give uncertain potencies.

As usually defined, the AC50 is the midpoint of the concentration-response curve, whichever way the signal moves. A higher AC50 goes with weaker potency. Turning to `CCOC(=O)C1(C)NC(c2ccc(N(C)C)cc2)C2C(=O)N(c3ccc(OC)cc3)C(=O)C21` (configuration not stated), the cell number change turned out to be 1.47%. Under setting [1], the AC50 was 0.0058 µM [falling, full curve, poor fit]. For the compound `CC(=O)[C@@]1(O)C(C)CC2C3C=C(C)C4=Cc5c(cnn5-c5ccccc5)C[C@]4(C)C3C(O)C[C@@]21C` (some centres not stated), the cell number change was 252%. Under setting [2], the concentration at half-maximal activity (AC50) is 29.1 µM [rising, single point]. In addition, the AC50 under setting [1] is 16.4 µM [falling, partial curve].

As to `Cc1ccc(Nc2nc(N3CCOCC3)nc(N3CCOCC3)n2)cc1C`, the cell number change amounted to 30.6%. Besides, under setting [2], the AC50 is 5.8 µM [rising, full curve, poor fit]. As for `O=C(O)c1ccc(CNCc2ccccc2Cl)cc1`, the cell number change was 1.47%. Further, the half-maximal activity concentration (AC50) under setting [1] was 0.184 µM [falling, full curve, poor fit]. On to `Cc1cccc(-c2nc(CC(=O)Nc3cccc(S(=O)(=O)NC4=NCCC4)c3)cs2)c1`, for which the cell number change is -1.81%. Also, the AC50 under setting [1] was 1.64 µM [rising, partial curve]. With `CC1Oc2ccccc2N(Cc2ccc(F)cc2)C1=O` (configuration not stated), the cell number change was found to be 3.97%. Also, under setting [1], the AC50 is 6.51 µM [rising, single point].

Consider `O=C(CSc1ccc(Br)cc1)NCC1CCCO1` (configuration not stated), for which the cell number change was -24.5%. Further, under setting [2], the concentration at half-maximal activity (AC50) was 0.58 µM [rising, single point]. The AC50 under setting [1] was 29.1 µM [falling, partial curve]. For the compound `N#Cc1c(C(F)(F)F)cc(-c2ccccc2)nc1SCCN1CCOCC1`, the cell number change turned out to be 16.5%. Moreover, the concentration at half-maximal activity (AC50) under setting [1] is 14.6 µM [rising, single point]. In the case of `CC(C)(C)OC(=O)N1CCC(c2c(C(=O)N3CCN(C(=O)c4ccco4)CC3)cnn2-c2ccc(F)cc2)CC1`, the cell number change was -13.5%. The AC50 under setting [1] was 29.1 µM [falling, single point]. For the compound `CCn1c(SCC(=O)Nc2ccc(OC)c(S(=O)(=O)N3CCCCC3)c2)nnc1C1CC1`, the AC50 under setting [1] was 0.206 µM [rising, partial curve, poor fit]. Regarding `COc1ccc(-c2noc(CSc3ccccc3)n2)cc1OC`, the cell number change is -32.8%. Under setting [2], the AC50 was 0.082 µM [falling, full curve, poor fit]. Also, the AC50 under setting [1] was 0.146 µM [falling, partial curve]. Turning to `CC[C@@]12C(=O)N(c3cccc(Br)c3)C(=O)N1[C@H](c1cccc(C)c1)[C@@H]1C(=O)N(Cc3ccccc3)C(=O)[C@@H]12`, the cell number change was -33.4%. Further, under setting [2], the half-maximal activity concentration (AC50) is 10.3 µM [falling, single point]. Also, under setting [1], the half-maximal activity concentration (AC50) is 29.1 µM [falling, single point]. As to `NS(=O)(=O)c1ccc(NC(=O)COC(=O)CCC2CCCCC2)cc1`, the cell number change was determined as 20.1%. Moreover, the AC50 under setting [1] is 13 µM [rising, partial curve]. `O=C(NCCc1ccccc1)C1CCN(C(=O)c2ccc(F)cc2)CC1`: the cell number change worked out at 1.85%. Turning to `NC(=O)CSc1ncnc2c1nnn2Cc1ccc(F)cc1`, the cell number change stood at 24%. `Cc1occc1C(=O)O/N=C(\N)c1ccccc1`: the cell number change amounted to 9.03%. Under setting [1], the concentration at half-maximal activity (AC50) is 1.03 µM [rising, full curve].

On to `Oc1ccc(/C=N/N=C(c2ccccc2)c2ccccc2)c(O)c1O`, for which the cell number change was -47%. Further, the AC50 under setting [2] is 20.6 µM [falling, single point]. In addition, the half-maximal activity concentration (AC50) under setting [1] is 16.4 µM [falling, single point]. Regarding `CCN(CC)CCNC(=O)CCc1c(C)nc2c(c(C)nn2-c2ccc(C)cc2)c1C`, the cell number change is 9.22%. Moreover, the AC50 under setting [1] was 0.651 µM [falling, partial curve, poor fit]. With `CCC(C)(C)C(=O)Nc1ccc(C(N)=O)cc1`, the cell number change is -36.3%. Besides, under setting [2], the concentration at half-maximal activity (AC50) is 16.4 µM [falling, single point]. The half-maximal activity concentration (AC50) under setting [1] is 29.1 µM [falling, single point].

Consider `OCC(C#CCN1CCCCC1)NCc1ccccc1` (configuration not stated), for which the cell number change was -12.2%. Under setting [2], the AC50 is 0.259 µM [falling, partial curve]. The AC50 under setting [1] was 29.1 µM [falling, partial curve]. Turning to `CCCN1C(=O)c2cc(C(=O)Nc3cccc(C(C)=O)c3)ccc2C1Nc1cccc(C(C)=O)c1` (configuration not stated), the cell number change was determined as 2.74%. Under setting [1], the half-maximal activity concentration (AC50) is 3.26 µM [rising, single point]. As for `Cc1cc(NC(=O)CCNS(=O)(=O)c2cc(Br)cnc2N)ccc1Br`, the cell number change is -16.5%. Further, the half-maximal activity concentration (AC50) under setting [2] was 0.82 µM [rising, full curve, poor fit]. As for `O=C(CCCNC(=O)c1ccc(Cl)cc1)Nc1ccc(Br)cc1`, the cell number change was 52.6%. The AC50 under setting [2] was 25.9 µM [rising, partial curve, poor fit]. Turning to `CN(CCOc1ccccc1)C(=O)C1CCC(=O)N(CCc2ccc(Cl)cc2)C1` (configuration not stated), the cell number change was -3.47%. In addition, the concentration at half-maximal activity (AC50) under setting [1] was 0.164 µM [falling, full curve, poor fit]. For `CCOc1cc(/C=N\Nc2nc(Nc3ccccc3)nc(N3CCOCC3)n2)ccc1OC(=O)c1ccco1`, the concentration at half-maximal activity (AC50) under setting [2] is 0.00517 µM [rising, full curve, poor fit]. On to `COc1ccc(-c2nc(CSCC(=O)N3CCc4ccccc43)c(C)o2)cc1OC`, for which the cell number change is 16.4%. Besides, the AC50 under setting [1] was 23.1 µM [rising, single point]. Consider `CC(=O)C(/C=N/c1ncc(C(F)(F)F)cc1Cl)=C(\C)O`, for which the cell number change was -25.9%.

As to `CC(NC(=O)c1ccc([N+](=O)[O-])cc1Cl)C1CC2CCC1C2` (configuration not stated), the cell number change came to 23.9%. For the same compound, the half-maximal activity concentration (AC50) under setting [1] was 11.6 µM [falling, partial curve].

For `Fc1ccc(COc2ccccc2CNc2nn[nH]n2)cc1`, the cell number change came out at 7.49%. Same read-out and setting: for `CC(C)C(C(=O)Nc1ccc(S(N)(=O)=O)cc1)N1C(=O)c2ccccc2C1=O` (configuration not stated) the value was 34.9%. With `Cc1cccc(NC(=S)NC(=O)c2oc3ccccc3c2C)n1`, the cell number change is -3.17%. Besides, under setting [2], the AC50 is 0.146 µM [rising, full curve, poor fit]. In the case of `O=C(NCc1ccc(Cl)cc1)C1CCN(S(=O)(=O)c2cccc3nonc23)CC1`, the cell number change amounted to 224%. In addition, the AC50 under setting [2] is 29.1 µM [rising, single point]. As to `O=c1cc(CSc2ccc(Cl)cc2)nc(-c2ccncc2)[nH]1`, the cell number change is 13.2%. For the same compound, the AC50 under setting [1] was 4.61 µM [rising, full curve, poor fit]. As to `CC(C)Nc1nc(Oc2ccc(Cl)cc2)cc(C(F)(F)F)n1`, the cell number change worked out at 2.24%. For the same compound, the AC50 under setting [1] was 3.26 µM [rising, partial curve].

With `CCN(CC)C(=S)SCC(=O)Nc1ncc2c(n1)CC(C)(C)CC2=O`, the cell number change is 9.81%. Under setting [1], the AC50 was 1.3 µM [rising, partial curve, poor fit].

`CCc1c(O)cc2n(c1=O)-c1ccc(Cl)cc1C2(C)C`: the cell number change is -20.2%. Also, the AC50 under setting [1] is 29.1 µM [falling, single point]. For `COc1ccc(N2C(=O)c3ccccc3C2O)cc1` (configuration not stated), the cell number change was 16.4%. Also, the half-maximal activity concentration (AC50) under setting [2] was 6.51 µM [rising, single point]. In the case of `Cc1nc2ccc(C(=O)c3ccccc3)cc2[nH]1`, the cell number change was found to be 250%. Further, the AC50 under setting [2] is 16.4 µM [rising, partial curve]. Under setting [1], the half-maximal activity concentration (AC50) is 8.2 µM [rising, partial curve]. On to `CCOC(=O)N/N=C/c1c(F)cccc1F`, for which the cell number change came out at 15.6%. Further, under setting [1], the half-maximal activity concentration (AC50) was 0.82 µM [rising, full curve, poor fit]. On to `Cc1cnc(C(=O)Nc2nnc(C3CC3)s2)cn1`, for which the cell number change was -0.621%. For the same compound, the AC50 under setting [1] is 6.51 µM [rising, single point]. `O=c1c2ccccc2ncn1Cc1ccc(Cl)c(Cl)c1`: the cell number change was -31.5%. Also, under setting [2], the half-maximal activity concentration (AC50) is 29.1 µM [falling, single point]. As for `Cc1ccc(S(=O)(=O)NC(CC(C)C)C(=O)N2CCCCCCC2)cc1` (configuration not stated), the cell number change is -18.5%. Turning to `COc1ccccc1C(=O)N1CCN(S(=O)(=O)c2ccccc2)CC1`, the cell number change was -6.06%. Also, the concentration at half-maximal activity (AC50) under setting [1] is 0.291 µM [rising, partial curve, poor fit]. For `CN1CCCCc2c1[nH]c1ccccc1c2=O`, the cell number change was -0.811%. Moreover, the AC50 under setting [1] was 2.91 µM [falling, partial curve, poor fit].

`COc1ccc(CC(=O)NC2CC(C)(C)NC(C)(C)C2)cc1OC`: the cell number change was -13.5%. For the same compound, the AC50 under setting [1] was 0.00517 µM [falling, full curve, poor fit]. Consider `COc1ccc2oc(C(=O)OCC(=O)NCc3ccc(OC)c(OC)c3)c(C)c2c1`, for which the cell number change is 15.5%. As for `COc1ccc(S(=O)(=O)Nc2cc(C(=O)NCCC(C)C)ccc2N2CCOCC2)cc1`, the cell number change was 19.1%. Moreover, the AC50 under setting [2] was 0.146 µM [rising, full curve, poor fit]. Also, the AC50 under setting [1] is 0.291 µM [rising, full curve]. Regarding `N=C1/C(=C\c2ccc(-c3ccc(C(=O)O)cc3)o2)C(=O)N=C2SC=C(c3ccccc3)N12`, the cell number change worked out at 47.8%. For the compound `Cc1ccc(C(=O)NC(=S)/C=C2\N(C)c3ccccc3C2(C)C)cc1`, the cell number change is -58.2%. Also, the AC50 under setting [2] is 23.1 µM [falling, single point]. In addition, the AC50 under setting [1] is 20.6 µM [falling, single point]. Consider `Fc1nc(F)c(F)c(NCCCNc2c(F)c(F)nc(F)c2F)c1F`, for which the cell number change is -1.41%. Also, under setting [1], the AC50 was 0.146 µM [rising, full curve, poor fit]. For the compound `CC12CCC(C(=O)NCCN3CCCCC3)(CC1=O)C2(C)C` (configuration not stated), the cell number change was -10.6%. In addition, the half-maximal activity concentration (AC50) under setting [1] was 8.2 µM [falling, single point]. For `Cc1nc(-c2ccccc2)nc(-c2ccccc2)n1`, the cell number change is -34.3%. For the same compound, under setting [2], the AC50 is 18.4 µM [falling, single point]. Moreover, under setting [1], the AC50 was 0.092 µM [falling, full curve, poor fit].

As to `CC(C#N)(NC(=O)CN1CCN(S(=O)(=O)c2ccccc2Cl)CC1)C1CC1` (configuration not stated), the cell number change came out at 13.6%. Moreover, under setting [1], the AC50 was 29.1 µM [rising, single point]. With `COc1cccc(CN(C)C(c2ccccc2)c2ccccc2)c1OC`, the cell number change is 7.98%. Besides, the AC50 under setting [1] was 29.1 µM [rising, single point]. As for `Cc1cccc(Nc2ncnc3onc(-c4cccc(Cl)c4)c23)c1C`, the cell number change was -24.3%. Besides, under setting [1], the AC50 was 0.103 µM [falling, full curve, poor fit]. Take `CCOC(=O)C1=NN(c2ccccc2)C2(S1)SC(C(C)=O)=C(C)N2c1ccccc1` (configuration not stated): the cell number change came out at 20.2%. Turning to `Cc1c(C(=O)Nc2cc(F)cc(F)c2)cnn1-c1ccccc1`, the cell number change is -12.6%. For `CCc1ccccc1N=C1SCC(=O)N1C`, the cell number change is -13.5%. Further, under setting [1], the half-maximal activity concentration (AC50) was 0.0259 µM [falling, full curve, poor fit]. Turning to `O=C(/C=C/c1ccc(Cl)cc1)NC(=S)Nc1ccc(CN2CCOCC2)cc1`, the cell number change is -42.9%. Besides, the AC50 under setting [2] is 13 µM [falling, partial curve].
